# Inconclusive means that the source gave no clear call. Such entries were picked first, then a sample of the others. Potencies beside an inconclusive call are fits to weak or partial responses and may not hold up. Activity calls are given as the source filed them. How the source made its calls: active means hit-call score of the fitted dose curve at least 0.9, where 1 is the maximum; inconclusive means response in the unintended direction; inactive means score below 0.9.
# By UniProt entry, the sequences of proteins in these tests, tags left out. Where a name states a change or a piece, a line headed by the entry shows the natural chain unless it says otherwise.
# UniProt Q12809: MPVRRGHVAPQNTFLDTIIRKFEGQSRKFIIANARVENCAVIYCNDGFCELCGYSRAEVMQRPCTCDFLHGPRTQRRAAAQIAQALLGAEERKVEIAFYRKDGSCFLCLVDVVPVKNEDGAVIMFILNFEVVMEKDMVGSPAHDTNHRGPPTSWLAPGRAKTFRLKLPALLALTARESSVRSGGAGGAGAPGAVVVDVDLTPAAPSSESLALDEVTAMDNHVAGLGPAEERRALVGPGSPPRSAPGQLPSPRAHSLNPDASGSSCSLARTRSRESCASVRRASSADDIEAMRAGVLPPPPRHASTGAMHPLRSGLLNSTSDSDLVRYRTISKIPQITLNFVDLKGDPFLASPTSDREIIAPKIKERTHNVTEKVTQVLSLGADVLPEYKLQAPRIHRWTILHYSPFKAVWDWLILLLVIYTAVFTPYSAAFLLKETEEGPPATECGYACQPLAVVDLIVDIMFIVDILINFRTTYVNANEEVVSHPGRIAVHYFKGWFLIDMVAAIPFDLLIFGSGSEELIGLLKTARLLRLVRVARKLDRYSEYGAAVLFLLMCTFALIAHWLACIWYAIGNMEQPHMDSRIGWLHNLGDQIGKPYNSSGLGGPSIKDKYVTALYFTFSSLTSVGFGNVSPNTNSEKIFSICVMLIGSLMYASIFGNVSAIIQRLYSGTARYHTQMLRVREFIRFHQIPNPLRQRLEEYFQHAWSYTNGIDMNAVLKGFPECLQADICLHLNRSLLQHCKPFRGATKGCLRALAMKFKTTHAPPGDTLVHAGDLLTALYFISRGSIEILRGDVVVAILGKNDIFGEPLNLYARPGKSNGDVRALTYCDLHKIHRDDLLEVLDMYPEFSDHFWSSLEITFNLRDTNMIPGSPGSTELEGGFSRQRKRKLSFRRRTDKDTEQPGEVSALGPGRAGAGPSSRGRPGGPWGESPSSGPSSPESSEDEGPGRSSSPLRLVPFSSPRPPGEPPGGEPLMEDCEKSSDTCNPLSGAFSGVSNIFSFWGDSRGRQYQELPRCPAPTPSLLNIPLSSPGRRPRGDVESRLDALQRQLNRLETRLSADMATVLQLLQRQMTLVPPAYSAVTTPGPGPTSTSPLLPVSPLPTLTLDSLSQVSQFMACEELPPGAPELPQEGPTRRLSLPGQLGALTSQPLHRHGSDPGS
# UniProt P16257, whole entry, looked up: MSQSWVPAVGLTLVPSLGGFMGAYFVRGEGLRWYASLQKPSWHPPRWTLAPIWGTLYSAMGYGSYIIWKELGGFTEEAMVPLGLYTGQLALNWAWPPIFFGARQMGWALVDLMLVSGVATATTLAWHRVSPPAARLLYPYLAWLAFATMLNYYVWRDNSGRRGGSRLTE
# UniProt P70606, whole entry, looked up: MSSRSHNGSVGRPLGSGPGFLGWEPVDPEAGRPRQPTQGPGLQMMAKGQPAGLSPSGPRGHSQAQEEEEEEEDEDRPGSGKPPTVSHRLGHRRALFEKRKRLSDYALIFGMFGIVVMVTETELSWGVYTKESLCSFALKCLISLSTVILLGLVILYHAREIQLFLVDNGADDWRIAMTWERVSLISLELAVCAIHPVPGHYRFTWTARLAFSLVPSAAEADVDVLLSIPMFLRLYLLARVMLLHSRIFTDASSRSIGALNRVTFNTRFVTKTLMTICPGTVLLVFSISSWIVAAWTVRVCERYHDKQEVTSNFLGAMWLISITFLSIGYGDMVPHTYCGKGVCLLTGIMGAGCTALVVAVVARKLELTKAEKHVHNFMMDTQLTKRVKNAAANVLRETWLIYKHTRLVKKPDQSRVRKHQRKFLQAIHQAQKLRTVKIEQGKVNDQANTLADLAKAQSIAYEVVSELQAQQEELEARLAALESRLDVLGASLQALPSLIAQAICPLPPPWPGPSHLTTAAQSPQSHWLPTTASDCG
# UniProt P30536, whole entry, looked up: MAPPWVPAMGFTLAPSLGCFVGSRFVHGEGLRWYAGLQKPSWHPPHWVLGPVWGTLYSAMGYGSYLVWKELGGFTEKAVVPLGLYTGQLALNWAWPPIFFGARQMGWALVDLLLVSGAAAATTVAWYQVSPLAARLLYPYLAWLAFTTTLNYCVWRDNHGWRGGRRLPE
# UniProt P10275: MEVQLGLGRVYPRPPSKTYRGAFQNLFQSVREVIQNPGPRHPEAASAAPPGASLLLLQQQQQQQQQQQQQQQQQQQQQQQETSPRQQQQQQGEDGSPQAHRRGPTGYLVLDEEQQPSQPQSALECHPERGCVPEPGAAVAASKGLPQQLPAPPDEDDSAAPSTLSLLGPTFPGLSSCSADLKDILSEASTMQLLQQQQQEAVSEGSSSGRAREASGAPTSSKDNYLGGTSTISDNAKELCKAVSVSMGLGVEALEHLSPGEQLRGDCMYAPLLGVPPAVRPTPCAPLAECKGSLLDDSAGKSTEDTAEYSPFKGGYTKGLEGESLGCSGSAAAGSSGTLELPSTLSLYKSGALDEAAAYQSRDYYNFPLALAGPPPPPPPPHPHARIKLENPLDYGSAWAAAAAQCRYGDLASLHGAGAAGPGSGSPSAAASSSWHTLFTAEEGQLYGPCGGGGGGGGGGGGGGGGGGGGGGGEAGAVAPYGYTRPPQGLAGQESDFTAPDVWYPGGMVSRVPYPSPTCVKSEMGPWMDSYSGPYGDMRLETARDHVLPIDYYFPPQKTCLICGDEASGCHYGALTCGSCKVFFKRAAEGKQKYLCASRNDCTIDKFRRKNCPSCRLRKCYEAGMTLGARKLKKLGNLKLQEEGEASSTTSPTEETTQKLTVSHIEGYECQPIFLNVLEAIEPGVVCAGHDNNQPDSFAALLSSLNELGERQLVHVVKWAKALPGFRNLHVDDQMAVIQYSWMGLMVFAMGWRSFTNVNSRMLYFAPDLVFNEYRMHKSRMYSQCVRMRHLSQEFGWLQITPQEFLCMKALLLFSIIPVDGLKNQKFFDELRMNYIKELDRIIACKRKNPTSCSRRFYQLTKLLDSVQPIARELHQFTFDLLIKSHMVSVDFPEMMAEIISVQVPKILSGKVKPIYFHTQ
# Tests used:
# [1] = target: Voltage-gated inwardly rectifying potassium channel KCNH2 (Homo sapiens) (UniProt Q12809); test: NVS_IC_hKhERGCh: NovaScreen (NVS) Ion Channel Assay for human Potassium Channel ERG (KhERGCh) (AID 2283333)
# In short: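 Membranes from CHO cells expressing human ERG; displacement of radioligand measured by filtration and scintillation after 0.75 h. Single-concentration duplicate screen at 25 uM, then concentration-response for actives; DMSO baseline.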
# [2] = target: rat Peripheral-type Benzodiazepine Receptor (PBR), Tspo (gene 24230) (UniProt P16257); test: NVS_MP_rPBR: NovaScreen (NVS) Membrane Protein Assay for rat Peripheral-type Benzodiazepine Receptor (PBR) (AID 2283335)
# In short: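 Competitive displacement of specific radioligand from rat kidney membrane PBR, read by filtration and scintillation after 1 h. Compounds first tested at 25 uM in duplicate, then in concentration series; signal loss relative to DMSO.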
# [3] = target: Small conductance calcium-activated potassium channel protein 1 (Rattus norvegicus) (UniProt P70606); test: NVS_IC_rKCaCh: NovaScreen (NVS) Ion Channel Assay for rat Potassium Channel, Ca2+ Act., VI (KCaCh) (AID 2283336)
# In short: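 Filter-based scintillation counting of radioligand bound to rat forebrain membrane preparations, measured 1 h after compound addition. Primary screen used 25 uM in duplicate, with concentration-response follow-up; signal decrease relative to DMSO marks activity.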
# [4] = target: human Peripheral-type Benzodiazepine Receptor (PBR), TSPO (gene 706) (UniProt P30536); test: NVS_MP_hPBR: NovaScreen (NVS) Membrane Protein Assay for human Peripheral-type Benzodiazepine Receptor (PBR) (AID 2283331);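 further: hits reduce radioligand binding relative to DMSO baseline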
# In short: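 Cell-free binding to human colonic membrane preparations measured by filter-based scintillation counting after 1 h. Compounds first run at 25 uM in duplicate, then concentration series for actives; signal loss against DMSO baseline.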
# [5] = target: human Androgen Receptor (AR), AR (gene 367) (UniProt P10275); test: NVS_NR_hAR: NovaScreen (NVS) Nuclear Receptor Binding Assay for human Androgen Receptor (AR) (AID 2283332)
# In short: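 Radioligand competitive binding, scintillation read-out, in cell-free extract from LnCAP, measured 20 h after dosing. Screened first in duplicate at 25 uM, then concentration series for actives; activity fitted against DMSO.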
compound,measurement,setting,value
Cc1[nH]cnc1C[C@H]1CCc2c(C)c3ccccc3n2C1=O,AC50,[1],active: 4.76 µM
Cn1cnc2c1c(=O)[nH]c(=O)n2C,AC50,[2],inconclusive: 14.3 µM
Cc1nc(-c2ccccn2)ncc1C(=O)Nn1cc(C)c2cc(F)ccc21,outcome,[3],inactive
C=CCOC(Cn1ccnc1)c1ccc(Cl)cc1Cl (stereo unspecified),AC50,[1],active: 12.5 µM
CCCCC(CC)CN1C(=O)C2C3C=CC(C3)C2C1=O (stereo unspecified),AC50,[2],inconclusive: 1.54 µM
O=C1OC[C@H](Cc2cccc(O)c2)[C@H]1Cc1cccc(O)c1,AC50,[2],inconclusive: 8.4 µM
CC(=O)c1ccc2c(c1)[C@H](NC(=O)c1ccc(F)cc1)[C@@H](O)C(C)(C)O2,AC50,[3],inconclusive: 0.347 µM
COc1ccc(CCN2CCC(Nc3nc4ccccc4n3Cc3ccc(F)cc3)CC2)cc1,outcome,[4],inactive
C#CCOC(=O)[C@@H](C)Oc1ccc(Oc2ncc(Cl)cc2F)cc1,AC50,[4],inconclusive: 0.692 µM
Cc1oc(-c2ccccc2)nc1CCOc1cccc2c1ccn2CCC(=O)O,AC50,[1],inconclusive: 0.245 µM
CCCCN1C(=O)[C@@H]([C@H](O)C2CCCCC2)NC(=O)C12CCN(Cc1ccc(Oc3ccc(C(=O)O)cc3)cc1)CC2,outcome,[1],inactive
O=C1OC(c2ccc(O)cc2)(c2ccc(O)cc2)c2ccccc21,outcome,[3],inactive
FC(F)(F)C(F)(F)C(F)(F)C(F)(F)C(F)(F)C(F)(F)CCI,AC50,[1],inconclusive: 0.204 µM
C/C=C/C=C/C(=O)O,AC50,[3],inconclusive: 25 µM
NNC(=O)c1ccncc1,AC50,[3],inconclusive: 11 µM
C=C(C)[C@H]1CC=C(C)C(=O)C1,AC50,[5],inconclusive: 6.5 µM

# Sorted by heavy-atom count (descending): part of the list above
compound,measurement,setting,value
CCCCN1C(=O)[C@@H]([C@H](O)C2CCCCC2)NC(=O)C12CCN(Cc1ccc(Oc3ccc(C(=O)O)cc3)cc1)CC2,outcome,[1],inactive
CCCCC(CC)CN1C(=O)C2C3C=CC(C3)C2C1=O (stereo unspecified),AC50,[2],inconclusive: 1.54 µM
C/C=C/C=C/C(=O)O,AC50,[3],inconclusive: 25 µM
